For two substances, binding results are on record in article PMC3954888.

Protein sequences, listed by entry. Tags and fused reporters are not part of them. Lines headed by an entry give the natural chain unless they say otherwise; changes in a name come on top. Chains listed by the source or under a name are the forms on record and can include a tag or linker. Residues count along the entry.
UniProt Q13490: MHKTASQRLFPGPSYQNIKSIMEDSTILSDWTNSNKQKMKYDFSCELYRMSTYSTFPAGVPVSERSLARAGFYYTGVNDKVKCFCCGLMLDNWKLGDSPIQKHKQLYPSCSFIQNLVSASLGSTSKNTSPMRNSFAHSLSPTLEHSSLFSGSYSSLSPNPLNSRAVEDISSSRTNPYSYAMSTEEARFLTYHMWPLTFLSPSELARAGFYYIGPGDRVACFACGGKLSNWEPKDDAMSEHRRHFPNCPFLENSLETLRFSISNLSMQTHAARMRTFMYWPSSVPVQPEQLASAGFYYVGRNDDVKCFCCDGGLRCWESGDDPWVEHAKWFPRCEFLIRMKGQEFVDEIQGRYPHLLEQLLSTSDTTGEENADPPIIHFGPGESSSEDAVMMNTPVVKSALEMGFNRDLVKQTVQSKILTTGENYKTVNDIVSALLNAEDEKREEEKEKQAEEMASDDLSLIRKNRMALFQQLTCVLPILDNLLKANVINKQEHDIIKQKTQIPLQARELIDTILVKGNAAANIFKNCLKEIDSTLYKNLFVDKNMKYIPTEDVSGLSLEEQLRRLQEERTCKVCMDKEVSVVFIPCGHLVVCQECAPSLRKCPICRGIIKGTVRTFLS
HA-tagged cIAP-1 RING mutant (His588 mutated to Ala) (Q13490, form named): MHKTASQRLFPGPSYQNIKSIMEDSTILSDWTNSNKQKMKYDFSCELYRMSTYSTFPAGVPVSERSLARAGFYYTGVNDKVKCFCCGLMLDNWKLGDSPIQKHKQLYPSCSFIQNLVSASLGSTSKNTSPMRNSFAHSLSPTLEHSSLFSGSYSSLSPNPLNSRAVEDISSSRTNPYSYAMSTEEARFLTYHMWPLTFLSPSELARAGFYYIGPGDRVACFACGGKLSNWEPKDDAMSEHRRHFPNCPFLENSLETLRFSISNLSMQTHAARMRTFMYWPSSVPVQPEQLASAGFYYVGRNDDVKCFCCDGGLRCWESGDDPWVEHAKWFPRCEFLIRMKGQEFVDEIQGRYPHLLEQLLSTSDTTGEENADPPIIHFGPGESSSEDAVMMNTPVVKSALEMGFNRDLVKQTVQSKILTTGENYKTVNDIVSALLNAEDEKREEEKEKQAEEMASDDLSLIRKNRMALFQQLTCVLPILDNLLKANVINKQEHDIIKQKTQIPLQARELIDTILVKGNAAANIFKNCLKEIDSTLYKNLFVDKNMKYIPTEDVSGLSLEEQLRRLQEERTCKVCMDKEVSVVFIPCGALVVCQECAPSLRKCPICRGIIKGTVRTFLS
UniProt Q13489: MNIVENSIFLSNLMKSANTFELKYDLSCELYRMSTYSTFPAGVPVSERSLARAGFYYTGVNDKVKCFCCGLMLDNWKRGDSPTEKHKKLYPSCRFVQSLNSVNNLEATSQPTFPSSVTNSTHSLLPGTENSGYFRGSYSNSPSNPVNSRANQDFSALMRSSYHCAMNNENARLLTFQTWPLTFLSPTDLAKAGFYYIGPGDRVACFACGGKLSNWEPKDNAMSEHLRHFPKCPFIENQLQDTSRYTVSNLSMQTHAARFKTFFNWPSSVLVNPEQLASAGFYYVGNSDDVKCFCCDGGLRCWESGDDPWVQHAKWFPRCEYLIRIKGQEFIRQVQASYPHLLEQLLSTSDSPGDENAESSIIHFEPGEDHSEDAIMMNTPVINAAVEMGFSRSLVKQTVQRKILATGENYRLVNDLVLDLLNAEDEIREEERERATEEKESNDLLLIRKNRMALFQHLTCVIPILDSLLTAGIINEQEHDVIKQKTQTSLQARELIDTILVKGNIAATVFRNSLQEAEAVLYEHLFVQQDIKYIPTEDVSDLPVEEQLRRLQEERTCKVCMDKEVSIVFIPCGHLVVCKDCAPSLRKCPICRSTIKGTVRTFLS
UniProt Q86VP3: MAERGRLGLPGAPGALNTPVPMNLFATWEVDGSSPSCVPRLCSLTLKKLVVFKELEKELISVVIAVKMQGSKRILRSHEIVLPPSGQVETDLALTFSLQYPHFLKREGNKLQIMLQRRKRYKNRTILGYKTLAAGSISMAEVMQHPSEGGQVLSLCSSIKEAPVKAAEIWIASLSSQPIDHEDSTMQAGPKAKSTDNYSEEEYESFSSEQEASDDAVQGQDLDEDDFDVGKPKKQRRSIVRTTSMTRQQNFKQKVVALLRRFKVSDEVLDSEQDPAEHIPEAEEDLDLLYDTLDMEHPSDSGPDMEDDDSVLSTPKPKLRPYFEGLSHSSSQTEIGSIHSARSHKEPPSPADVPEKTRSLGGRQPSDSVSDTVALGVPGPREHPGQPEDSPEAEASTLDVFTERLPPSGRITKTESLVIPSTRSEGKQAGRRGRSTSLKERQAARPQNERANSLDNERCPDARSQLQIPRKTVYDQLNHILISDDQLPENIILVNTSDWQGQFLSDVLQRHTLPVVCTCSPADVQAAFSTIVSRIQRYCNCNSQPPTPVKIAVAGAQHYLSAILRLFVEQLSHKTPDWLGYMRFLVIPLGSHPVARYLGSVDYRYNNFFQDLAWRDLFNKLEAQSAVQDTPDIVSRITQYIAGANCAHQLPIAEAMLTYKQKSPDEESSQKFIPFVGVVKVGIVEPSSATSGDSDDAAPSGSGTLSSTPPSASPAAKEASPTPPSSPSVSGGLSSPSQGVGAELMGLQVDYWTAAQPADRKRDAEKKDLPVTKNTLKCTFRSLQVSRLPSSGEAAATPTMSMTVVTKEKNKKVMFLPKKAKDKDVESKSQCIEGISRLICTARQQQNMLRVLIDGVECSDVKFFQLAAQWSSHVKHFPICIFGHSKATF
GST-PACS-2FBR(38-202): residues 38-202 of Q86VP3

Results are given in words; binding and its absence hold for the method and conditions named. For part of these data: Binding seen in cells or lysates may run through a third protein. Some entries that bind do so weakly or less than the wild type.

In assay [1] the target is HA-tagged cIAP-1 RING mutant (His588 mutated to Ala) (UniProt Q13490). The assay is described as follows: co-IP; HuH-7 cells co-transfected with S-peptide/SBP-PACS-2 and HA-cIAP-1H588A, MG132 (5 µM) 4 h; lysate (50 mM HEPES pH 7.2, 120 mM NaCl, 1 mM EDTA, 0.1% NP-40, 10% glycerol) on anti-HA affinity gel overnight at 4°C; immunoblot for S-peptide. (In general: A western blot detects proteins with antibodies after separation by electrophoresis.)

Assay [2] has as its target endogenous cIAP-2 (human (endogenous in HuH-7)) (UniProt Q13489). The experiment in a line: co-IP; HuH-7 cells transfected with S-peptide/SBP-PACS-2, MG132 (5 µM) 4 h; 1.5 mg lysate with 5 µg anti-cIAP-2 antisera 2 h at 4°C, then protein A agarose overnight; immunoblot for S-peptide.
The target of the next assay is GST-PACS-2FBR(38-202) (UniProt Q86VP3). The assay is described as follows: pull-down; ~200 ng GST-PACS-2FBR(38-202) or GST with 500 ng cIAP-1 and/or cIAP-2, with or without 500 ng His-TRAF2, 30 min at 4°C in 20 µl of 20 mM Tris pH 7.9, 150 mM NaCl, 0.1 mM EDTA, 0.1% NP-40; GST-agarose beads; immunoblot; both purified.

For “S-peptide/streptavidin-binding peptide-double tagged PACS-2 (phosphofurin acidic cluster sorting protein 2) (from UniProt Q86VP3-1 1-889)”, the binding entry in assay [1] and in assay [2] was “binds” each time.
For the substance “recombinant cIAP-2 (from UniProt Q13489 1-604) (enzyme)”, in the assay with GST-PACS-2FBR(38-202), the binding entry is on record as “binds”.
